System: tumor tissue samples and normal tissue samples (HLA-B*07 positive)
Assay: Identification and quantitation of tumor associated peptides presented on the cell surface (HLA immunoprecipitation, label-free LC-MS)
Parameters: species or system human
Conditions: Table 8a; cancer entities on which the peptide was found presented (abbreviations in table head)

| Substance | Peptide Presentation on cancer entities |
| --- | --- |
| 2 (VPGSDPARYEFL; listed as Homo sapiens) [compound 2] | OSCAR |
| 4 (GPKKFIVKL; listed as Homo sapiens) [compound 4] | PRCA |
| 5 (LPSLSHCSQL; listed as Homo sapiens) [compound 5] | MEL |
| 8 (MPKTNLSKM; listed as Homo sapiens) [compound 8] | HNSCC |
| 12 (LPNTGRIGQLL; listed as Homo sapiens) [compound 12] | NSCLCadeno |
| 13 (LPNTGRIGQL; listed as Homo sapiens) [compound 13] | PRCA |
| 17 (SPAAPLSPASSL; listed as Homo sapiens) [compound 17] | UBC |
| 18 (MALSVLRLAL; listed as Homo sapiens) [compound 18] | GBC, GC, NSCLCsquam, OC, OSCAR, PACA, PRCA, SCLC |
| 20 (MVLGIGPVL; listed as Homo sapiens) [compound 20] | CRC, GBC, HNSCC, NSCLCadeno,NSCLCsquam, OC, SCLC, UEC |
| 21 (APSRLLEL; listed as Homo sapiens) [compound 21] | HCC |
| 22 (LPQLKPAL; listed as Homo sapiens) [compound 22] | HNSCC, OSCAR |
| 23 (VPRPTSTVGL; listed as Homo sapiens) [compound 23] | MEL |
| 24 (VPRPTSTVGLFL; listed as Homo sapiens) [compound 24] | MEL |
| 25 (RPQGAVGGL; listed as Homo sapiens) [compound 25] | HCC |
| 27 (RIRVTSEVL; listed as Homo sapiens) [compound 27] | BRCA |
| 29 (APLRVHITSL; listed as Homo sapiens) [compound 29] | MEL |
| 35 (APLPPPRAL; listed as Homo sapiens) [compound 35] | GBM |
| 39 (QPRPSSEKI; listed as Homo sapiens) [compound 39] | AML |
| 45 (TRPWSGPYIL; listed as Homo sapiens) [compound 45] | MEL |
| 46 (QPISGNPVTL; listed as Homo sapiens) [compound 46] | NHL, NSCLCsquam, SCLC, UBC |
| 49 (APEKARAFL; listed as Homo sapiens) [compound 49] | OSCAR |
| 50 (PEKARAFL; listed as Homo sapiens) [compound 50] | OSCAR |
| 51 (SPVFYVQTL; listed as Homo sapiens) [compound 51] | BRCA |
| 53 (SPRIPFSTF; listed as Homo sapiens) [compound 53] | MEL |

| Substance | Peptide Presentation on cancer entities |
| --- | --- |
| 54 (VPSCGRSVEGL; listed as Homo sapiens) [compound 54] | CLL, GBC, NHL, NSCLCadeno, OC, OSCAR, PACA, RCC, UEC |
| 55 (LPALLRSGL; listed as Homo sapiens) [compound 55] | CCC, GBC, HCC, HNSCC, NSCLCadeno, NSCLCsquam, OC, OSCAR, RCC, SCLC |
| 56 (LPALLRSGLTL; listed as Homo sapiens) [compound 56] | BRCA, CCC, CRC, GBC, HCC, HNSCC, MEL, NHL, NSCLCadeno, OC, OSCAR, RCC |
| 57 (APLLPIRTL; listed as Homo sapiens) [compound 57] | UBC |
| 58 (APLLPIRTLPL; listed as Homo sapiens) [compound 58] | UBC |
| 59 (KPRTIYSSL; listed as Homo sapiens) [compound 59] | OSCAR, UEC |
| 61 (LPRIPFSTF; listed as Homo sapiens) [compound 61] | MEL |
| 63 (FPHMATTAF; listed as Homo sapiens) [compound 63] | HNSCC |
| 64 (VPRPIFSQLYL; listed as Homo sapiens) [compound 64] | NHL, UEC |
| 65 (FPNVYSTLVL; listed as Homo sapiens) [compound 65] | MEL |
| 67 (VPVSRPVL; listed as Homo sapiens) [compound 67] | CLL, NHL |
| 68 (FPNEVSVVL; listed as Homo sapiens) [compound 68] | BRCA, MEL, NSCLCadeno, NSCLCsquam, OC, OSCAR |
| 69 (RPEDGRPRL; listed as Homo sapiens) [compound 69] | GBM |
| 70 (VPAQRLGLL; listed as Homo sapiens) [compound 70] | AML, NSCLCadeno, NSCLCsquam, OC, OSCAR |
| 71 (APFAPLHGGGSL; listed as Homo sapiens) [compound 71] | PRCA |
| 72 (APCNGNVAV; listed as Homo sapiens) [compound 72] | BRCA, NSCLCadeno |
| 73 (LPVSSPVTL; listed as Homo sapiens) [compound 73] | BRCA, NSCLCsquam |
| 74 (VPVSHPVL; listed as Homo sapiens) [compound 74] | CLL, NHL |
| 76 (KPKVESQAL; listed as Homo sapiens) [compound 76] | BRCA |
| 77 (QPRLVPGETL; listed as Homo sapiens) [compound 77] | GBC, MEL, NHL, NSCLCadeno, NSCLCsquam |
| 78 (HPSQESPTL; listed as Homo sapiens) [compound 78] | NSCLCsquam, OC, RCC, UBC, UEC |
| 79 (GPASDHPSL; listed as Homo sapiens) [compound 79] | OC, PRCA, UEC |
| 80 (SALPTTISF; listed as Homo sapiens) [compound 80] | HNSCC, OSCAR, SCLC |
| 82 (DAAHPGPSV; listed as Homo sapiens) [compound 82] | UEC |

| Substance | Peptide Presentation on cancer entities |
| --- | --- |
| 83 (AVSSHHNVI; listed as Homo sapiens) [compound 83] | RCC |
| 85 (MPMQDIKMILKM; listed as Homo sapiens) [compound 85] | OC, SCLC |
| 87 (APVGGNVTSSF; listed as Homo sapiens) [compound 87] | OSCAR |
| 89 (FLIPRAGWLAGL; listed as Homo sapiens) [compound 89] | CRC |
| 93 (SVAIAHGVF; listed as Homo sapiens) [compound 93] | CLL, CRC |
| 95 (RTKEEINEL; listed as Homo sapiens) [compound 95] | NSCLCadeno |
| 97 (LPPGTQIQI; listed as Homo sapiens) [compound 97] | CRC |
| 98 (FPCSALLACF; listed as Homo sapiens) [compound 98] | OSCAR |
| 99 (MPVSAFTVI; listed as Homo sapiens) [compound 99] | GC, NSCLCsquam |
| 100 (TPIPFDKILY; listed as Homo sapiens) [compound 100] | OSCAR |
| 101 (KPGLPGLK; listed as Homo sapiens) [compound 101] | BRCA, CRC, GBM, HCC, MEL, NHL, NSCLCadeno, NSCLCsquam, OC, OSCAR, RCC, SCLC, UBC, UEC |
| 102 (MAGPAIHTAPM; listed as Homo sapiens) [compound 102] | HNSCC |
| 105 (RPRYETGVCA; listed as Homo sapiens) [compound 105] | CRC |
| 107 (GQRLESPGGAA; listed as Homo sapiens) [compound 107] | AML, CCC, CLL, CRC, GBC, HCC, HNSCC, NSCLCsquam, PACA, UBC, UEC |
| 108 (APRGSPPI; listed as Homo sapiens) [compound 108] | HCC, OC, OSCAR, PACA, RCC |
| 111 (YPLQQTNVY; listed as Homo sapiens) [compound 111] | RCC |
| 112 (YPSPLNKHSF; listed as Homo sapiens) [compound 112] | RCC |
| 114 (FVPPSGPSNPM; listed as Homo sapiens) [compound 114] | HNSCC |
| 115 (KTKSLAQQL; listed as Homo sapiens) [compound 115] | CRC, NSCLCadeno, UEC |
| 116 (RSYQHSLRL; listed as Homo sapiens) [compound 116] | CRC |
| 117 (IPHQRSSL; listed as Homo sapiens) [compound 117] | CLL |
| 118 (NPERHKPSF; listed as Homo sapiens) [compound 118] | AML |
| 120 (TVRPKNAAL; listed as Homo sapiens) [compound 120] | AML, HCC, OSCAR, UEC |

Reference: patent US20220289816A1, “IMMUNOTHERAPY WITH B*07 RESTRICTED PEPTIDES AND COMBINATION OF PEPTIDES AGAINST CANCERS AND RELATED METHODS” (Immatics Biotechnologies GmbH, priority 2018, published 2022)
